The supplement of paper PMC10849652
The list shows a part of the results.

Chains of the proteins cited; added tags and fusions are not shown. Lines headed by an entry give the natural chain unless they say otherwise; changes in a name come on top.
UniProt Q96MG8: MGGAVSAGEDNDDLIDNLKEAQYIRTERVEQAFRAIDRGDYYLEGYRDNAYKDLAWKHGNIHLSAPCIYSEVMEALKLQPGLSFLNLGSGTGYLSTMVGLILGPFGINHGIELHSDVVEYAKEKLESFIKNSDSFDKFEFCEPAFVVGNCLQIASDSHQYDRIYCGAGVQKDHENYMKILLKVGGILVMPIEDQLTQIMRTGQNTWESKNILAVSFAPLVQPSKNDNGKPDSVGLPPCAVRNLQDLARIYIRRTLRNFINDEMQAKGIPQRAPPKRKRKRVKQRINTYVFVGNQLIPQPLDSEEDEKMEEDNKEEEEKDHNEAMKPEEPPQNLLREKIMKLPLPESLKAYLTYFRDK
UniProt O00408, whole entry, looked up: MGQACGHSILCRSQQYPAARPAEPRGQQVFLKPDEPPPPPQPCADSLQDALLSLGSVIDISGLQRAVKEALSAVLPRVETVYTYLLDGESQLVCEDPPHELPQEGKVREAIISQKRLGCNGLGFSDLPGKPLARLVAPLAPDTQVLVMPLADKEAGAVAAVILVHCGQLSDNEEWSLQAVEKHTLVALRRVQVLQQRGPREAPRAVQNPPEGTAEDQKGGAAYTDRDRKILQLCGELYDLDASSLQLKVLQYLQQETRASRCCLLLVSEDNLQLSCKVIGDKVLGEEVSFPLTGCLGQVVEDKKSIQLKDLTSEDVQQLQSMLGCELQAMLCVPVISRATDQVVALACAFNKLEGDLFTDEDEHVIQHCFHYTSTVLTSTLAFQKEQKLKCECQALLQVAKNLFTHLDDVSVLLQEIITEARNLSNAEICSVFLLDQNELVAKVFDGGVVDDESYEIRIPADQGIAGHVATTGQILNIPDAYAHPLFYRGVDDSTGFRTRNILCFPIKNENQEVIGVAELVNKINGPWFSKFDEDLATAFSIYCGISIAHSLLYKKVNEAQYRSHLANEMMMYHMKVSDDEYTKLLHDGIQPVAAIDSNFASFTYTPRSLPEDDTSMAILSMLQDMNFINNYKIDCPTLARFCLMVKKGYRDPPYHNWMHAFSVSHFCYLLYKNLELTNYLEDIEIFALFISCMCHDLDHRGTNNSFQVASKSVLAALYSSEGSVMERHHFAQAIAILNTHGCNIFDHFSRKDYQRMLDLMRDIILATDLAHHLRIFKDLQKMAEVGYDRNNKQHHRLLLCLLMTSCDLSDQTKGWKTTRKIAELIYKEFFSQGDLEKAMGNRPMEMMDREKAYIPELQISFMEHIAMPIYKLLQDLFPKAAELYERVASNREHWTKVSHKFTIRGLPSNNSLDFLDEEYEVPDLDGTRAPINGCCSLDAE
UniProt Q8WUM4: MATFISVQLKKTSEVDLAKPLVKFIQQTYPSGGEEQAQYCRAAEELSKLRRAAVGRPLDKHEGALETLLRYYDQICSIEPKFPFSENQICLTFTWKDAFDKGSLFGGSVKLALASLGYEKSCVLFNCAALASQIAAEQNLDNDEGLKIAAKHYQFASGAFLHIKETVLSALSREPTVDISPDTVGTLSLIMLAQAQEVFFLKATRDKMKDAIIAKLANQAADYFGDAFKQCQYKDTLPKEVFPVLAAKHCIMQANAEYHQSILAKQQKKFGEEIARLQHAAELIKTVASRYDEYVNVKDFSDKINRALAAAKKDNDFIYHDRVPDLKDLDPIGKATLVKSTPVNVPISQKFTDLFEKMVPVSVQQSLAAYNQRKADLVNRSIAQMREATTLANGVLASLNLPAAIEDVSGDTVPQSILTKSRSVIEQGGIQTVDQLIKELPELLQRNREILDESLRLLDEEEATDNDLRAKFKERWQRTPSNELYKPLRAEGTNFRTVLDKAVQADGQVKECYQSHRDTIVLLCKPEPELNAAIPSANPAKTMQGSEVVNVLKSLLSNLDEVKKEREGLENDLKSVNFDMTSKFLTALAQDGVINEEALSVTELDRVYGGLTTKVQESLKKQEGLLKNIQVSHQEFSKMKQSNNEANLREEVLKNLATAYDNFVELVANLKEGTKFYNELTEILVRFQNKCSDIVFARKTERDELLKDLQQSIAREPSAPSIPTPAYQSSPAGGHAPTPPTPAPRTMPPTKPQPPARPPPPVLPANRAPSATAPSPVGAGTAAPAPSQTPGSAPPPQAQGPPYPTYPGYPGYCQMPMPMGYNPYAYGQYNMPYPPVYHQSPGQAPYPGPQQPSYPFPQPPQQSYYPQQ
UniProt Q9H0J9: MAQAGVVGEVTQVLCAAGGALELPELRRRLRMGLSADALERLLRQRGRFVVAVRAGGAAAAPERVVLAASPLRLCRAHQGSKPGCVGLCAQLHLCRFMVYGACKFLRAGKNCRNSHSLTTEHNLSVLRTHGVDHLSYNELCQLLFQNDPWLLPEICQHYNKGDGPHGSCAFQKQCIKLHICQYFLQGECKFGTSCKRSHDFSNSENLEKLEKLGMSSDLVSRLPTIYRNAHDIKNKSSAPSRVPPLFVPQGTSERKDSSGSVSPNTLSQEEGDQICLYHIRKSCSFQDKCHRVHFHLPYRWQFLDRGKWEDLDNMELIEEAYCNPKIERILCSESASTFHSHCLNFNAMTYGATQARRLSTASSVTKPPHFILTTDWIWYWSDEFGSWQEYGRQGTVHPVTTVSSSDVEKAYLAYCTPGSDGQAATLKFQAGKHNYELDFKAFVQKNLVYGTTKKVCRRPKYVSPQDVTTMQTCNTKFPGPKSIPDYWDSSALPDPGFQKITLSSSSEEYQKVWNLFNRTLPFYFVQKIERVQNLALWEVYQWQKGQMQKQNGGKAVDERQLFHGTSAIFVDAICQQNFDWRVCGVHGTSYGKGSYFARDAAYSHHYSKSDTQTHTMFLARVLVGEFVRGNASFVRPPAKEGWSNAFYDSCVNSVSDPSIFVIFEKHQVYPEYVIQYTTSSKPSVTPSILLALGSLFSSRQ
UniProt O43933: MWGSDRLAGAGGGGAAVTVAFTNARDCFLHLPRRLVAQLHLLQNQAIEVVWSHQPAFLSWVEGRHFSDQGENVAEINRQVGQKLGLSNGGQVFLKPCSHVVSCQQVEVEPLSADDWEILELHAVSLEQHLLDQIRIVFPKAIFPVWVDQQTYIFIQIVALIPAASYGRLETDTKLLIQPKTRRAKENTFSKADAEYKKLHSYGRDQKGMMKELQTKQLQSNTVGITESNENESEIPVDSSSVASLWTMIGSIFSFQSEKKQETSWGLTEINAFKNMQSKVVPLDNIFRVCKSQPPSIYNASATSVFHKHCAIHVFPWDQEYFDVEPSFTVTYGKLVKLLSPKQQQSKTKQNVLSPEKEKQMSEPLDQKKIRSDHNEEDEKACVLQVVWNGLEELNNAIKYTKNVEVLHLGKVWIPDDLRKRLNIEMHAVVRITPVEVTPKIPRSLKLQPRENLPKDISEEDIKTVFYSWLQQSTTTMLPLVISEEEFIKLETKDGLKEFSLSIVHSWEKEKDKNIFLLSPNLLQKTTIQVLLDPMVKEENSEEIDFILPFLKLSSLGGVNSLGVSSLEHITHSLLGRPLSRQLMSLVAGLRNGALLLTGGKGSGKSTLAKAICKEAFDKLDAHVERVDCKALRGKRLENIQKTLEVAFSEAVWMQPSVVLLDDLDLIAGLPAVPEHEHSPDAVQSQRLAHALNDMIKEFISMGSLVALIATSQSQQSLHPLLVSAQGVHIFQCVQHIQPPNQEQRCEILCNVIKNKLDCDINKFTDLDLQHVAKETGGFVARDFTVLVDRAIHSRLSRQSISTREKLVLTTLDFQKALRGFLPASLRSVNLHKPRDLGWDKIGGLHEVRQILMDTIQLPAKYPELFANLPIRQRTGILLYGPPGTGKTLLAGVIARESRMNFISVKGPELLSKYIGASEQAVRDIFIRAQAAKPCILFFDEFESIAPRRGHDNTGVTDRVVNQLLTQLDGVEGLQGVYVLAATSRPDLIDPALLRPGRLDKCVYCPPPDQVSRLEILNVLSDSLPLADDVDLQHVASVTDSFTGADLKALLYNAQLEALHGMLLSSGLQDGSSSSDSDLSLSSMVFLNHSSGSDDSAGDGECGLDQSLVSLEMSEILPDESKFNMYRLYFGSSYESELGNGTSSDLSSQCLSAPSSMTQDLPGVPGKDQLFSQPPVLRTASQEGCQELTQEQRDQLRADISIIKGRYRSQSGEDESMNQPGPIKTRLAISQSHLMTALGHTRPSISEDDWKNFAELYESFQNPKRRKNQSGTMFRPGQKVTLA
UniProt Q8N8D1: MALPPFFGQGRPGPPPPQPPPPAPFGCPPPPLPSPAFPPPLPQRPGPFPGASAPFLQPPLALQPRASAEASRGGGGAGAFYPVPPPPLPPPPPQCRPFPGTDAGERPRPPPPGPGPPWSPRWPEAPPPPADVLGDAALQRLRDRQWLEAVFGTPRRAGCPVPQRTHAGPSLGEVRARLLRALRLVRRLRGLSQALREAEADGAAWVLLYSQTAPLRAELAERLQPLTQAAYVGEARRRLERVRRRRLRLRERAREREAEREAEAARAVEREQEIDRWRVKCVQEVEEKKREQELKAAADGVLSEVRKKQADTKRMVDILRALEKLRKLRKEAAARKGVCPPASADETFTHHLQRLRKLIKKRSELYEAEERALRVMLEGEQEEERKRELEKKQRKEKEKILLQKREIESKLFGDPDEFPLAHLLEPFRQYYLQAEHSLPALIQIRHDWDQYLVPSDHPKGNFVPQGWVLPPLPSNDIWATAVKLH
UniProt Q13608: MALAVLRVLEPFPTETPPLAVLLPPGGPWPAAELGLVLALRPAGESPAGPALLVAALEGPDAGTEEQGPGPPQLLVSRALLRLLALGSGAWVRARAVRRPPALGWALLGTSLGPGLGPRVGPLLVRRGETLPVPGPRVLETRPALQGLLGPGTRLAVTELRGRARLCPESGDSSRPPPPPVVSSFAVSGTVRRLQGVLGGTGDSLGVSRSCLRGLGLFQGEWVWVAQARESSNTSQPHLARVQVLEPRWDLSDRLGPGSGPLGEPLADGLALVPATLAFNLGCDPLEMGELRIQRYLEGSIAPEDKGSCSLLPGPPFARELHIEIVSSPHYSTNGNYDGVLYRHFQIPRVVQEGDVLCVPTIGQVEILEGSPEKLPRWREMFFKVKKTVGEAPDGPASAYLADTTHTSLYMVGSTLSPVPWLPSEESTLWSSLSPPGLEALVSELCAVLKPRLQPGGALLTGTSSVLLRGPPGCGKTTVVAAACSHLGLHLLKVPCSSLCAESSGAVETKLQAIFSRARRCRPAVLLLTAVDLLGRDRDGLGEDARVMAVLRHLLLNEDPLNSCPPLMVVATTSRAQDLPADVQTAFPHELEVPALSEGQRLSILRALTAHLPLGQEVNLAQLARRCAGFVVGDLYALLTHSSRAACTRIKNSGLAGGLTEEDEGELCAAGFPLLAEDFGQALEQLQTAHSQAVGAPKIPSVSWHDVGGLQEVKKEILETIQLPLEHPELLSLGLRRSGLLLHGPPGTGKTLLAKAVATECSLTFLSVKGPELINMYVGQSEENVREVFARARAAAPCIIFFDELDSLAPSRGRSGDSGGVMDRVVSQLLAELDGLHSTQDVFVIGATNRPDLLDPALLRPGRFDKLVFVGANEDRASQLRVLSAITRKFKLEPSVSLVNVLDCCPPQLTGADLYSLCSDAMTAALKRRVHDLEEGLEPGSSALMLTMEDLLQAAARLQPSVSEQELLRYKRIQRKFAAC
UniProt Q5JVF3: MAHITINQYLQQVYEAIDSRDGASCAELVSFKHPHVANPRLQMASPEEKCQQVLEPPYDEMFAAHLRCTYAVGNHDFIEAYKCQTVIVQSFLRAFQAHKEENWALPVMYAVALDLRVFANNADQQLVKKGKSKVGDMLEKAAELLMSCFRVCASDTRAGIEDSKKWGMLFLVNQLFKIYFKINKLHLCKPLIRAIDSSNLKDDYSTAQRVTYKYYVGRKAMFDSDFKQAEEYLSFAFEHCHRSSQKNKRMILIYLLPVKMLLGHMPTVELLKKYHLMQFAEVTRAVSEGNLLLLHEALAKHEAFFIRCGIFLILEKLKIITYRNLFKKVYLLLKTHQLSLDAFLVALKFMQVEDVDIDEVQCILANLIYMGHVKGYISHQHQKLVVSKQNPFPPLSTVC
UniProt Q9NUG6, whole entry, looked up: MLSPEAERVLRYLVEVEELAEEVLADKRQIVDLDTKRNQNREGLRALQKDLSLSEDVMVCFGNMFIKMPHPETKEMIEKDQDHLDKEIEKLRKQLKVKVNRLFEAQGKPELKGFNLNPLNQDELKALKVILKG
UniProt P08559, whole entry, looked up: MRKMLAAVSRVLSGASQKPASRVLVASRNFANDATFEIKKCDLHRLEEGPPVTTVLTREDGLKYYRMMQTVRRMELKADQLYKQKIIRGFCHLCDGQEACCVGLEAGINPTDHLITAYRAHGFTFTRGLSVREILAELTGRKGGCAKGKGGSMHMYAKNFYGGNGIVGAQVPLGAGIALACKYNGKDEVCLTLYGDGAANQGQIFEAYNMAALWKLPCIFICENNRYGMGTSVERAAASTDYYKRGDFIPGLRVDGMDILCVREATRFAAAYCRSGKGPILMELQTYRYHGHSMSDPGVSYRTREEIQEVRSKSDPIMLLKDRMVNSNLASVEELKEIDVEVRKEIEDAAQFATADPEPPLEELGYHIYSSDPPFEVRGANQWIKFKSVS

Tests used:
Test in all cases: log2 fold change, soluble protein after heating vs DMSO (PISA); higher = thermal stabilisation; K562 lysate, 10 uM; active = over 0.2 and 3.5 SD of the protein, either way, in both replicates (recomputed)
[1] = compound: c1cn2cc(-c3ccc4cn[nH]c4c3)nc(Nc3ccc(N4CCOCC4)cc3)c2n1 [entospletinib]
In short: (§1)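 A 30 min treatment with 10 μM compound was applied to crude K562 extract at 1 mg/mL protein in PBS pH 7.4 with 1 mM MgCl2. Heating for 3 min spanned 48°C-58°C, after which aliquots were pooled, adjusted to 0.5% NP-40 at 4°C and spun at 21,000xg for 90 min. TMTpro 16plex LC-MS/MS of the supernatant, with channel sums equalised, gave values recorded as log-two fold change in thermal stability against solvent controls, from duplicates.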

[2] = compound: NCC(=O)Nc1ccc(-n2nc(C(F)(F)F)cc2-c2ccc3c(ccc4ccccc43)c2)cc1
In short: as §1

[3] = compound: O=C1NC(=O)C(c2cnc3ccccn23)=C1c1cn2c3c(cc(F)cc13)CN(C(=O)N1CCCCC1)CC2
In short: as §1

[4] = compound: O=C(CCCCCCC(=O)Nc1ccccc1)NO [vorinostat]
In short: as §1

[5] = compound: O=C(O)c1ccc2c(c1)nc(Nc1cccc(Cl)c1)c1ccncc12 [silmitasertib]
In short: as §1

Target	log2 fold change [1]	log2 fold change [2]	log2 fold change [3]	log2 fold change [4]	log2 fold change [5]
PECR (UniProt Q9BY49)	inactive: 0.115				
PEX5 (UniProt J3KPV0)	inactive: -0.266	inactive: -0.093			
PDIA4, A0A499FI48			inactive: 0.045		
PCBP2 (UniProt F8W0G4)	inactive: -0.088	inactive: 0.083		inactive: -0.058	inactive: 0.025
PFKFB1 (UniProt P16118)	inactive: -0.064	inactive: 0.081		inactive: -0.284	inactive: 0.077
PCNX3 (UniProt Q9H6A9)	inactive: 0.049	inactive: 0.114	inactive: -0.026		
PDP1 isoform 2 (UniProt Q9P0J1)	inactive: -0.022			inactive: 0.218	inactive: -0.17
PBRM1 (UniProt Q86U86)	inactive: -0.141		inactive: -0.108	inactive: 0.163	inactive: -0.046
PCMTD1 (UniProt Q96MG8)	inactive: 0.003	inactive: 0.075			
PDIA3 (UniProt P30101)	inactive: 0.009	inactive: -0.011	inactive: 0.02	inactive: 0.057	inactive: 0.005
PDE4DIP isoform 4 (UniProt Q5VU43)	inactive: -0.025	inactive: 0.077	inactive: 0.057	inactive: 0.029	inactive: -0.029
PDE2A (UniProt O00408)	inactive: 0.01	inactive: 0.195	inactive: 0.071	inactive: 0.117	inactive: 0.022
PEX7 (UniProt O00628)	inactive: 0	inactive: 0.01			
PDCD6IP (UniProt Q8WUM4)	inactive: -0.009	inactive: 0.065	inactive: 0.009	active: -0.332	inactive: -0.005
PARP12 (UniProt Q9H0J9)	inactive: 0.015		inactive: -0.178	inactive: -0.028	inactive: -0.01
PCGF1 (UniProt Q9BSM1)	inactive: 0.071	inactive: 0.248		inactive: -0.117	inactive: -0.123

Target	log2 fold change [1]	log2 fold change [2]	log2 fold change [3]	log2 fold change [4]	log2 fold change [5]
PEX1 (UniProt O43933)	inactive: 0.278	inactive: -0.09	inactive: -0.035		
PDCD7 (UniProt Q8N8D1)	inactive: 0.084		inactive: 0.141		
PAXBP1 (UniProt Q9Y5B6)	inactive: -0.043	inactive: 0.02	inactive: -0.02	inactive: -0.146	inactive: -0.019
PEX5 isoform 4 (UniProt P50542)	inactive: 0.003	inactive: -0.026	inactive: 0.018	inactive: -0.072	inactive: 0.005
PEX6 (UniProt Q13608)	inactive: 0.048			inactive: 0.025	inactive: 0.109
PCID2 (UniProt Q5JVF3)	inactive: -0.023	inactive: 0.003	inactive: -0.009	inactive: -0.235	inactive: 0.011
PARPBP (UniProt Q9NWS1)	inactive: -0.05	inactive: 0.08		inactive: 0.036	inactive: 0.068
PGD (UniProt K7EPF6)			inactive: -0.034		
PDRG1 (UniProt Q9NUG6)	inactive: 0.078	inactive: -0.084	inactive: 0.008	inactive: -0.068	inactive: -0.022
PER1 (UniProt O15534)			inactive: 0.133		
PDHA1 isoform 4 (UniProt P08559)	inactive: 0.002	inactive: 0.039	inactive: 0.004	inactive: -0.105	inactive: 0.047
PARP9 (UniProt Q8IXQ6)	inactive: -0.039	inactive: 0.05	inactive: 0.181	inactive: -0.164	inactive: -0.085
PFN3 (UniProt P60673)	inactive: -0.134	inactive: 0.158	inactive: -0.142		
PFN1 (UniProt I3L3D5)	inactive: -0.194				
PGAP2 isoform 2 (UniProt Q9UHJ9)	inactive: -0.105				
PDZD8 (UniProt Q8NEN9)	inactive: -0.012	inactive: 0.088	inactive: -0.063	inactive: -0.219	inactive: 0.012

Looked up above:
In log2 fold change [4], PAXBP1 (UniProt Q9Y5B6) has inactive: -0.146
In log2 fold change [3], PGD (UniProt K7EPF6) has inactive: -0.034
